Reference: patent publication US6686445B1 (Arizona Board of Regents, acting for and on behalf of …, priority 1997, dated 2004)
Where a SMILES comes first, the peptide text is derived from it. [ ]: non-standard residue; d: D form. The star is where a group is joined. X1 = COC1=CC(=O)N(C(=O)[C@@H](O*)C(C)C)[C@H]1Cc1ccccc1; NH(2-(2-pyridyl)ethyl) = c1ccc(CCN*)nc1; NH(4-Br-phenethyl) = Brc1ccc(CCN*)cc1; NMe2Val = CC(C)[C@@H](C(=O)*)N(C)C; X5 = O=[N+]([O-])c1ccc(CCN*)cc1; NH(thiazol-2-yl) = c1csc(N*)n1; NHPhenethyl = c1ccc(CCN*)cc1; NMeV = CN[C@H](C(=O)O)C(C)C; Hiv = CC(C)[C@H](O)C(=O)O; X2 = c1ccc2ncc(N*)cc2c1; X4 = COc1ccc(CCN*)cc1OC; X3 = c1ccc2sc(N*)nc2c1; X7 = Clc1cccc(CCN*)c1; NHBn = c1ccc(CN*)cc1; X6 = Fc1ccc(CCN*)cc1; NHPh = c1ccc(N*)cc1; X8 = Clc1ccccc1CCN*

Legend:
[1] = test system: NCI 60-cell-line in vitro human tumor panel; settings: GI50-Compare correlation with dolastatin 15
Description: All compounds synthesized were first evaluated for in vitro antitumor activity against murine P388 lymphocytic leukemia cells and against murine L1210 leukemia cells and human CA46 Burkitt lymphoma cells using techniques described by Hamel & Lin (see: HAMEL, E., and LIN, C. M., […], Interaction of combretastatin, a new plant-derived antimitotic agent, with tubulin, Biochemical Pharmacology, 32, 3864). The compounds were also evaluated in the NCI's human tumor 60-cell-line in intro primary screen as described by Monks et al. (see: MONKS, A., SCUDIERO, et al., 1991, New colorimetric cytotoxicity assay for anticancer drug screening, Journal of the National Cancer Institute, 83, 757). Data analyses were performed using methods described by Boyd and Paull (see: BOYD, M. R., et al., 1995, Some practical considerations and applications of the National Cancer Institute in vitro anticancer drug discovery screen, Drug Development Research, 34, 91). A tubulin polymerization inhibition assay was performed according to a modified version of the procedure used previously and described by Muzaffar et al. (see: MUZAFFAR, A., et al., 1990, Antitubulin effects of derivatives of 3-demethylthiocolchicine, methylthio esters of natural colchicinoids, and thioketones derived from thiocolchicine, Comparison with colchicine, Journal of Medicinal Chemistry, 33, 567) to evaluate the effects of dolastatin 15 on cellular microtubule assembly. The new assay for these compounds employed a drug-tubulin preincubation (15 min.) with 10 μM tubulin in 0.8 M glutamate at 30° C., followed by addition of GTP and incubation (20 min.) at 30° C., with tubulin polymerization monitored turbidimetrically in GILFORD recording spectrophotometers.

[2] = general procedure: solution-phase peptide synthesis; DEPC; settings: coupling step

| Compound | Dolastatin 15 Compare Coefficient [1] | step yield [2] [%] |
| --- | --- | --- |
| CC(C)[C@H](NC(=O)[C@H](C(C)C)N(C)C)C(=O)N(C)[C@H](C(=O)N1CCC[C@H]1C(=O)N1CCC[C@H]1C(=O)O[C@H](C(=O)NCCc1cccc(Cl)c1)C(C)C)C(C)C [Compound 12f] (NMe2Val-V[NMeV]PP[Hiv]-X7) | 0.78 |  |
| N-[(2S)-O-[(N,N-Dimethyl-valyl)-valyl-(N-methyl-valyl)-prolyl-prolyl]-2-hydroxyisovalerlyl]-2-phenethylamide |  | 71 |
| CC(C)[C@H](NC(=O)[C@H](C(C)C)N(C)C)C(=O)N(C)[C@H](C(=O)N1CCC[C@H]1C(=O)N1CCC[C@H]1C(=O)O[C@H](C(=O)NCCc1ccccc1)C(C)C)C(C)C [Compound 12c, N-[(2S)-O-[(N,N-Dimethyl-valyl)-valyl-(N-methyl-valyl)-prolyl-prolyl]-2-hydroxyisovalerlyl]-2-phenethylamide] (NMe2Val-V[NMeV]PP[Hiv]-NHPhenethyl) | 0.77 |  |
| COC(=O)[C@H](Cc1ccccc1)NC(=O)[C@@H](OC(=O)[C@@H]1CCCN1C(=O)[C@@H]1CCCN1C(=O)[C@H](C(C)C)N(C)C(=O)[C@@H](NC(=O)[C@H](C(C)C)N(C)C)C(C)C)C(C)C [Compound 12m] (NMe2Val-V[NMeV]PP[Hiv]F-OMe) | 0.74 |  |
| CC(C)[C@H](NC(=O)[C@H](C(C)C)N(C)C)C(=O)N(C)[C@H](C(=O)N1CCC[C@H]1C(=O)N1CCC[C@H]1C(=O)O[C@H](C(=O)NCCc1ccccn1)C(C)C)C(C)C [Compound 12k] (NMe2Val-V[NMeV]PP[Hiv]-{NH(2-(2-pyridyl)ethyl)}) | 0.81 |  |
| CC(C)[C@H](NC(=O)[C@H](C(C)C)N(C)C)C(=O)N(C)[C@H](C(=O)N1CCC[C@H]1C(=O)N1CCC[C@H]1C(=O)O[C@H](C(=O)Nc1nccs1)C(C)C)C(C)C [Compound 12p] (NMe2Val-V[NMeV]PP[Hiv]-{NH(thiazol-2-yl)}) | 0.79 |  |
| CC(C)[C@H](NC(=O)[C@H](C(C)C)N(C)C)C(=O)N(C)[C@H](C(=O)N1CCC[C@H]1C(=O)N1CCC[C@H]1C(=O)O[C@H](C(=O)Nc1cnc2ccccc2c1)C(C)C)C(C)C [Compound 12r] (NMe2Val-V[NMeV]PP[Hiv]-X2) | 0.78 |  |
| CC(C)[C@H](NC(=O)[C@H](C(C)C)N(C)C)C(=O)N(C)[C@H](C(=O)N1CCC[C@H]1C(=O)N1CCC[C@H]1C(=O)O[C@H](C(=O)Nc1ccccc1)C(C)C)C(C)C [Compound 12a] (NMe2Val-V[NMeV]PP[Hiv]-NHPh) | 0.81 |  |
| N-[(2S)-O-[[N-(Bezyloxycarbonyl)-valyl]-(N-methyl-valyl)-prolyl-prolyl]-2-hydroxyisovaleryl]-2-phenethylamide |  | 100 |
| COc1ccc(CCNC(=O)[C@@H](OC(=O)[C@@H]2CCCN2C(=O)[C@@H]2CCCN2C(=O)[C@H](C(C)C)N(C)C(=O)[C@@H](NC(=O)[C@H](C(C)C)N(C)C)C(C)C)C(C)C)cc1OC [Compound 12j] (NMe2Val-V[NMeV]PP[Hiv]-X4) | 0.78 |  |
| COC1=CC(=O)N(C(=O)[C@@H](OC(=O)[C@@H]2CCCN2C(=O)[C@@H]2CCCN2C(=O)[C@H](C(C)C)N(C)C(=O)[C@@H](NC(=O)[C@H](C(C)C)N(C)C)C(C)C)C(C)C)[C@H]1Cc1ccccc1 [Compound 1, dolastatin 15] (NMe2Val-V[NMeV]PP-X1) | 1.00 |  |
| CC(C)[C@H](NC(=O)[C@H](C(C)C)N(C)C)C(=O)N(C)[C@H](C(=O)N1CCC[C@H]1C(=O)N1CCC[C@H]1C(=O)O[C@H](C(=O)NCc1ccccc1)C(C)C)C(C)C [Compound 12b] (NMe2Val-V[NMeV]PP[Hiv]-NHBn) | 0.74 |  |
| COC(=O)[C@@H]1CCCN1C(=O)[C@@H](OC(=O)[C@@H]1CCCN1C(=O)[C@@H]1CCCN1C(=O)[C@H](C(C)C)N(C)C(=O)[C@@H](NC(=O)[C@H](C(C)C)N(C)C)C(C)C)C(C)C [Compound 12o] (NMe2Val-V[NMeV]PP[Hiv]P-OMe) | 0.71 |  |
| CC(C)[C@H](NC(=O)[C@H](C(C)C)N(C)C)C(=O)N(C)[C@H](C(=O)N1CCC[C@H]1C(=O)N1CCC[C@H]1C(=O)O[C@H](C(=O)NCCc1ccc([N+](=O)[O-])cc1)C(C)C)C(C)C [Compound 12i] (NMe2Val-V[NMeV]PP[Hiv]-X5) | 0.79 |  |
| CC(C)[C@H](NC(=O)[C@H](C(C)C)N(C)C)C(=O)N(C)[C@H](C(=O)N1CCC[C@H]1C(=O)N1CCC[C@H]1C(=O)O[C@H](C(=O)Nc1nc2ccccc2s1)C(C)C)C(C)C [Compound 12q] (NMe2Val-V[NMeV]PP[Hiv]-X3) | 0.77 |  |
| COC(=O)[C@H](CCSC)NC(=O)[C@@H](OC(=O)[C@@H]1CCCN1C(=O)[C@@H]1CCCN1C(=O)[C@H](C(C)C)N(C)C(=O)[C@@H](NC(=O)[C@H](C(C)C)N(C)C)C(C)C)C(C)C [Compound 12n] (NMe2Val-V[NMeV]PP[Hiv]M-OMe) | 0.80 |  |
| CC(C)[C@H](NC(=O)[C@H](C(C)C)N(C)C)C(=O)N(C)[C@H](C(=O)N1CCC[C@H]1C(=O)N1CCC[C@H]1C(=O)O[C@H](C(=O)NCCc1ccc(Br)cc1)C(C)C)C(C)C [Compound 12h] (NMe2Val-V[NMeV]PP[Hiv]-{NH(4-Br-phenethyl)}) | 0.78 |  |
| CC(C)[C@H](NC(=O)[C@H](C(C)C)N(C)C)C(=O)N(C)[C@H](C(=O)N1CCC[C@H]1C(=O)N1CCC[C@H]1C(=O)O[C@H](C(=O)NCCc1ccc(F)cc1)C(C)C)C(C)C [Compound 12d] (NMe2Val-V[NMeV]PP[Hiv]-X6) | 0.77 |  |
| CC(C)[C@H](NC(=O)[C@H](C(C)C)N(C)C)C(=O)N(C)[C@H](C(=O)N1CCC[C@H]1C(=O)N1CCC[C@H]1C(=O)O[C@H](C(=O)NCCc1ccccc1Cl)C(C)C)C(C)C [Compound 12g] (NMe2Val-V[NMeV]PP[Hiv]-X8) | 0.78 |  |
